Assay results reported in paper PMC11846196.
No constants are given. Whether binding was seen depends on the method and setting. Binding seen in cells or lysates may run through a third protein. Some results given as binding are weak or reduced against the parent protein; the word gives no strength.

The chains behind the UniProt entries cited, without tags or fusion partners.
UniProt Q7L576: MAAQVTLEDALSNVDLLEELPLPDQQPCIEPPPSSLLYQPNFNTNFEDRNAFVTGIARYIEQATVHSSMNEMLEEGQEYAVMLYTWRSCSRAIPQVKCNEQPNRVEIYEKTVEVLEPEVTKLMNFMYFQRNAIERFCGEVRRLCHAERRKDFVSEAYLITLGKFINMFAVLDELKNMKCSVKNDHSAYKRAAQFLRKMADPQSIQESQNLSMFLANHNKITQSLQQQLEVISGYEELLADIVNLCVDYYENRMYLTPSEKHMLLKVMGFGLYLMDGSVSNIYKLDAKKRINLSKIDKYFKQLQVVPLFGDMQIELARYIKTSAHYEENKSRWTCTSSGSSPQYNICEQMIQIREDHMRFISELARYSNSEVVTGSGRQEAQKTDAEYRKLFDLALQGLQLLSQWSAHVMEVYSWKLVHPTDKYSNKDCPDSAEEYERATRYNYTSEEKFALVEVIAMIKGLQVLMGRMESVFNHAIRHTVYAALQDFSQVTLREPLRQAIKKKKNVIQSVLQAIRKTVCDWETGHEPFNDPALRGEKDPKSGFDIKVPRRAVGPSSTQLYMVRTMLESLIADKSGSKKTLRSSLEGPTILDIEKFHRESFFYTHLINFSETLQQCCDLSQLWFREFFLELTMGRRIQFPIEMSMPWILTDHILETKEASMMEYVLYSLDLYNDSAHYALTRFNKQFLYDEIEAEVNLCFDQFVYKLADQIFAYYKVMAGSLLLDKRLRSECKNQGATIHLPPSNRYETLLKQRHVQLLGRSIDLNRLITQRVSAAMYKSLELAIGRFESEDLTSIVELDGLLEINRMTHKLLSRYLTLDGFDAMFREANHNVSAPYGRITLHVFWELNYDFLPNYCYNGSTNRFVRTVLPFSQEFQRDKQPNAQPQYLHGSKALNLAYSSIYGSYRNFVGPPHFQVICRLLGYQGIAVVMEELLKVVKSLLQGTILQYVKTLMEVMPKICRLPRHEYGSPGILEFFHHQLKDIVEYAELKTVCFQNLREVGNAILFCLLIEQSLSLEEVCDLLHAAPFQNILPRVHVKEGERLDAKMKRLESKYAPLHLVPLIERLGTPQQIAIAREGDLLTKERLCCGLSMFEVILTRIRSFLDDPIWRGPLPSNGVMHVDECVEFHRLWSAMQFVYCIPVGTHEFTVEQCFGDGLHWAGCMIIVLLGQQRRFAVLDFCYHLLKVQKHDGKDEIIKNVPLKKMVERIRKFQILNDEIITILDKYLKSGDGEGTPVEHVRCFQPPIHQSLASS
UniProt O43148: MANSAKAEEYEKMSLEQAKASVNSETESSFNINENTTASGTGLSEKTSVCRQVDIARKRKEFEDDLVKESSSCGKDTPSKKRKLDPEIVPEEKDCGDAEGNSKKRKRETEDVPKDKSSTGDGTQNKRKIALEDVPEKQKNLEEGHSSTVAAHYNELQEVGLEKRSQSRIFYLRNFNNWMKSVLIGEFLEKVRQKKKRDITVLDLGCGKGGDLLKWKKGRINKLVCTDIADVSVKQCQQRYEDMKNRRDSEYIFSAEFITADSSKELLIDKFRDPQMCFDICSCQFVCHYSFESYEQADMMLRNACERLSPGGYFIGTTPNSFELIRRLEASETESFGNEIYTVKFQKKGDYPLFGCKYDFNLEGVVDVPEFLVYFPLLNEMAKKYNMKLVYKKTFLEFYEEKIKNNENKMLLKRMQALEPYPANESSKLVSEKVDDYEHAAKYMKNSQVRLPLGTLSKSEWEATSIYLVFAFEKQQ

Target: Cytoplasmic FMR1 Interacting Protein 1 (human (in U2OS / OS cells)) (UniProt Q7L576)
Assay: co-IP; OS cell lysate in Pierce IP Lysis Buffer, 5 ug anti-CYFIP1 antibody with magnetic beads overnight at 4 C, western blotting

binding: binds
Substance: RNA Guanine-7 Methyltransferase (from UniProt O43148 1-476) (enzyme)
